Test results reported in PMC7819943, “Rice protein-binding microarrays: a tool to detect cis-acting elements near promoter regions in rice”.
Some of the results follow.

By UniProt entry, the sequences of proteins in these tests, tags left out.
UniProt Q0JBA9, entry or part of it: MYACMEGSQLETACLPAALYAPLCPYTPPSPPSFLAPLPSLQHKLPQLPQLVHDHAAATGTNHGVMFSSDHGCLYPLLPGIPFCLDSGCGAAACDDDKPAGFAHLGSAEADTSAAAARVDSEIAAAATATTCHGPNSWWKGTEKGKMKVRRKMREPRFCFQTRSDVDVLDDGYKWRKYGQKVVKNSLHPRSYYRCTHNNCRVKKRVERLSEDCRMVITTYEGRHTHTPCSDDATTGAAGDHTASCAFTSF

Target: OsWRKY34 (Oryza sativa, UniProt Q0JBA9 1-250)
Test: protein-binding microarray (RPBM); PBS, 2% BSA, 51.3 ng/ul salmon testes DNA, 50 uM zinc acetate, 200 nM TF, 25 C, 1 h; high values mean tight binding
Details: protein: recombinant; tags: N-terminal polyhistidine and DsRed monomer fusion (pET32a); label: CyDye5-dUTP incorporated in the synthesized complementary strand; 3' TTTTT single-stranded linker to array surface; dsDNA, one strand shown
Method in brief: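 Using Ni–NTA, transcription factors fused N-terminally to polyhistidine and DsRed were purified after expression in E. coli BL21-CodonPlus. These were incubated at 200 nM with a blocked, double-stranded custom Agilent array for 1 h at 25 °C in a buffer containing 50 µM zinc acetate, and the array was washed. The binding signal is per-feature fluorescence intensity (arbitrary units) on an Axon 4000B scanner.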

| Sequence | binding signal |
| --- | --- |
| TTCGATCGTATATTTTACTTTTGTTTTTTTTAAGGTCTTCCGGAGTCACCTAGTGCAG | 9880 fluorescence intensity (a.u.) |
| CCGATCCCGAGGAGAGAGGAAGGGGAGGGGCGCTGTATTACGGAGTCACCTAGTGCAG | 12600 fluorescence intensity (a.u.) |
| TTTGCAAATATGGCTAATTACGGTCCGTCTGCAACCAAATCGGAGTCACCTAGTGCAG | 8110 fluorescence intensity (a.u.) |
| TGACTCTATTTTTTCCTTCGGTCTGCTGTCTGCACTCTGGCGGAGTCACCTAGTGCAG | 11300 fluorescence intensity (a.u.) |
| CGGCCCGCCACAACTGCTGTCGTTCCTAGTTCCTCGCCGTCGGAGTCACCTAGTGCAG | 8580 fluorescence intensity (a.u.) |
| TGCAGTGGCAGGGGTGTGTGATTTCAACTTCGAGTTTCCGCGGAGTCACCTAGTGCAG | 8080 fluorescence intensity (a.u.) |
| AGGGACAGAGAAAGCAAGCACAACCGTTCATATCGATCCCCGGAGTCACCTAGTGCAG | 8750 fluorescence intensity (a.u.) |
| CCGTCCCGTCTCCTCAGCTCCTTGCGCCATCTCGCTGCTGCGGAGTCACCTAGTGCAG | 10200 fluorescence intensity (a.u.) |
| GCAAACTCGGTTAGTGTTAGTTATCGTTTTTCCGTTTTTTCGGAGTCACCTAGTGCAG | 8820 fluorescence intensity (a.u.) |
| TTTTCTTTTTTTTTTCCTTTTCCTTTTTTCTTTTCAATTTCGGAGTCACCTAGTGCAG | 10900 fluorescence intensity (a.u.) |
| GCATGTTGTTTTACTCAATTCCTAAGGTGCTGTAGACAGCCGGAGTCACCTAGTGCAG | 8400 fluorescence intensity (a.u.) |
| GAGGAAGTGGTTGCGCCGACGACGAGGTGAGCGGGTTGACCGGAGTCACCTAGTGCAG | 8860 fluorescence intensity (a.u.) |
| AACTTATGAGAGGCGGTTGACTTGACTGCACATATGCAAACGGAGTCACCTAGTGCAG | 8030 fluorescence intensity (a.u.) |
| GCTATTGCTTAGGATCTGCTTTCACCTTGCTAGCTCCGATCGGAGTCACCTAGTGCAG | 8570 fluorescence intensity (a.u.) |
| TACAGCGTCCTGTTTGTTTGTGTTGGGGCGTGGCAGTGTCCGGAGTCACCTAGTGCAG | 8420 fluorescence intensity (a.u.) |
| TTGTGTGATAGTGTGGGTTGCGTTCTTTTTTTAGTGTGTACGGAGTCACCTAGTGCAG | 9030 fluorescence intensity (a.u.) |
| AACAGTCAGTGTGTATATCCTGTATCTGTCACACCTCTTTCGGAGTCACCTAGTGCAG | 8450 fluorescence intensity (a.u.) |
| CTTGTCCATGGTGCAGTTCATCTTGTTGATCCTTGCAGATCGGAGTCACCTAGTGCAG | 9410 fluorescence intensity (a.u.) |
| TGTCCATTCGTCCTCATCCCACAAACCCCTGAGCGAGCGACGGAGTCACCTAGTGCAG | 11800 fluorescence intensity (a.u.) |
| CGCGTAATAATATTTGGAGAAAGTCAACCACGCGTTCCATCGGAGTCACCTAGTGCAG | 8070 fluorescence intensity (a.u.) |
| AACTCGCTAGTCTCAACTTACTACACATGGTTGTCTATATCGGAGTCACCTAGTGCAG | 9020 fluorescence intensity (a.u.) |
| GTTCACTTTGACGGGCCACCACCAAGTCGCCTCCTCAGATCGGAGTCACCTAGTGCAG | 8400 fluorescence intensity (a.u.) |
| GTGTTGTGTTTATTTTTTTATAATATCCATGATTGTAATCCGGAGTCACCTAGTGCAG | 9640 fluorescence intensity (a.u.) |
| AGACTTGGTAGTTGAGGCGGGGTGGAGGAAACTAACCGGACGGAGTCACCTAGTGCAG | 8210 fluorescence intensity (a.u.) |
| TCTTTCGGAGGTGCTCATAGGGGTAGGGTGTACGTGTGTGCGGAGTCACCTAGTGCAG | 15400 fluorescence intensity (a.u.) |
| GCCATCCACTTGTGCTGCCAATTTGCTCAATCCCGACAAGCGGAGTCACCTAGTGCAG | 8220 fluorescence intensity (a.u.) |
| CAAGGTTATATCCCTAGTCAGTCTATCTATCTATCTATCCCGGAGTCACCTAGTGCAG | 8500 fluorescence intensity (a.u.) |

2 entries drawn at random from the list so far, as already listed:

| Sequence | binding signal |
| --- | --- |
| CTTGTCCATGGTGCAGTTCATCTTGTTGATCCTTGCAGATCGGAGTCACCTAGTGCAG | 9410 fluorescence intensity (a.u.) |
| AACTCGCTAGTCTCAACTTACTACACATGGTTGTCTATATCGGAGTCACCTAGTGCAG | 9020 fluorescence intensity (a.u.) |

(next part)

| Sequence | binding signal |
| --- | --- |
| TACTAATTGTGTCATCATTCGTATTTACTCCCTCCGTTTCCGGAGTCACCTAGTGCAG | 9780 fluorescence intensity (a.u.) |
| TTCACCGTTTCTCACGCTGTTACTACGAGTCCGTAAAAACCGGAGTCACCTAGTGCAG | 8140 fluorescence intensity (a.u.) |
| GTTTTGTGCTCCATGGTGTCCGGGCACCATTGTTGAAATTCGGAGTCACCTAGTGCAG | 8060 fluorescence intensity (a.u.) |
| TGTTTGTTCCGTTTCGTGATGTTTTGGGCCGGCCCAAGAACGGAGTCACCTAGTGCAG | 9960 fluorescence intensity (a.u.) |
| AACCACCGATCTACATCCAATTCCATGGTCACTTTCTCTCCGGAGTCACCTAGTGCAG | 8040 fluorescence intensity (a.u.) |
| GGCTTGGCTCCTCTTCTTCTTATCCCTTGTCCTCGCAACCCGGAGTCACCTAGTGCAG | 9430 fluorescence intensity (a.u.) |
| CCAAGTAGCCAACACCACGCCTCGATCGATCGGAACACACCGGAGTCACCTAGTGCAG | 8080 fluorescence intensity (a.u.) |
| GATTTCTTCTTGGGCTGATCTTGGTGCCAGACTGTTTTGCCGGAGTCACCTAGTGCAG | 8680 fluorescence intensity (a.u.) |
| AATTTCGCAGCTGTGCCTGTGCTTACTTGCAGCTAATCTGCGGAGTCACCTAGTGCAG | 9400 fluorescence intensity (a.u.) |
| TTTTGCCTTTTTCGAGGTTAAGCAACTTGTGCTAGTTTTCCGGAGTCACCTAGTGCAG | 8160 fluorescence intensity (a.u.) |
| GCGTCCATGACCACTCCTTGCCGCCCCTTGCACGCCATGTCGGAGTCACCTAGTGCAG | 10100 fluorescence intensity (a.u.) |
| ACACTGCAACCTGTGTTCGCTTTTCTGAACAATCCTGACACGGAGTCACCTAGTGCAG | 8390 fluorescence intensity (a.u.) |
| GGATTTCTCGTCGTTTCTTGCGTGCGGTTGCGTTCTTGATCGGAGTCACCTAGTGCAG | 10700 fluorescence intensity (a.u.) |
| TATCCTTATCTCTTTCTCCTTCTCTCTACCCTTCGTCAACCGGAGTCACCTAGTGCAG | 8110 fluorescence intensity (a.u.) |
| TACTAAAAAAGTCAACGGTGTCATTTGAAACGGAGGGAGTCGGAGTCACCTAGTGCAG | 11600 fluorescence intensity (a.u.) |
| TTCTGCCTACTCGATGTCGTATTACGTAGATCCTTGTACCCGGAGTCACCTAGTGCAG | 9570 fluorescence intensity (a.u.) |
| GATTGTTCTTCTCGCTTCTGAATTGTTGTGACCTGTAACTCGGAGTCACCTAGTGCAG | 8250 fluorescence intensity (a.u.) |
| TCCGTTTTGCCGTTGGGCTAGCTTAGCTTGTTTTTTTTTTCGGAGTCACCTAGTGCAG | 12000 fluorescence intensity (a.u.) |
| GAGCTTATAGGGTGGGTTGTGTCCATGGAGTAACTATTATCGGAGTCACCTAGTGCAG | 18600 fluorescence intensity (a.u.) |
| GCCCACAAACACAAGCGCTGTTTTCCTCTCCTACCCTTTTCGGAGTCACCTAGTGCAG | 9490 fluorescence intensity (a.u.) |
| CCTTTTGCTTGTTCAGTTTTTTGTGCCTCATCCTTCTCTTCGGAGTCACCTAGTGCAG | 10000 fluorescence intensity (a.u.) |
| GGTGCGTGGGTGGTGGTCTTTTTCTTTTTCCTAGTTACGACGGAGTCACCTAGTGCAG | 29400 fluorescence intensity (a.u.) |
| GCTGCTGAAATGGCATTTTCTTTGGTTATTCTACTTCCAACGGAGTCACCTAGTGCAG | 9030 fluorescence intensity (a.u.) |
| TCCACTTCATCACCGGCCACTCTGCCTAGAGCATTATCATCGGAGTCACCTAGTGCAG | 11000 fluorescence intensity (a.u.) |
| TATCTCATTCATCTGATTCCTGCGCTTTTCCTATAGTCCACGGAGTCACCTAGTGCAG | 8060 fluorescence intensity (a.u.) |
| CACTTTCCCAGCCAAAAACTCTCGTACTCCAGCTCGTATACGGAGTCACCTAGTGCAG | 9380 fluorescence intensity (a.u.) |
| GCGGTATTGAAAGATCGAATGTCTGGTTTTCGGGTTGGGGCGGAGTCACCTAGTGCAG | 10100 fluorescence intensity (a.u.) |

As entered above.
Entry of GCTGCTGAAATGGCATTTTCTTTGGTTATTCTACTTCCAACGGAGTCACCTAGTGCAG under binding signal: 9030 fluorescence intensity (a.u.)
Entry of CCGATCCCGAGGAGAGAGGAAGGGGAGGGGCGCTGTATTACGGAGTCACCTAGTGCAG under binding signal: 12600 fluorescence intensity (a.u.)
